Some of the results follow. Single values are uncertain, as repeats are few or missing.
Test system: Saccharomyces cerevisiae BY4743
Experiment: growth (OD600) with compound + IPBC relative to untreated control; higher = less growth inhibition
Conditions: compound concentration: 133 uM; IPBC concentration: 0.5 ug/ml; 20 h
Procedure: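 NMCCC compounds (133 uM) combined with IPBC (0.5 ug/ml) against Saccharomyces cerevisiae BY4743 in YPD, 96-well plates. Growth was read as OD600 at 20 h and expressed as % of the untreated control. Single pass.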

SMILES	growth
CC(C)CCNC(=O)c1ccc(Cn2c(C(F)(F)F)nc3cccnc32)cc1 + CCCCNC(=O)OCC#CI [3-iodo-2-propynyl butylcarbamate (IPBC)]	96.4%
Cc1cc(C(F)(F)F)c2c(C#N)cn(-c3cnn(C)c3)c2n1 + CCCCNC(=O)OCC#CI [3-iodo-2-propynyl butylcarbamate (IPBC)]	102%
CSc1nc(O)n2ncc(-c3ccc(F)cc3)c2n1 + CCCCNC(=O)OCC#CI [3-iodo-2-propynyl butylcarbamate (IPBC)]	99.3%
COc1ccc(-c2nnc(SCC(=O)NC(C)(C#N)C(C)C)o2)cc1 (centres undefined) + CCCCNC(=O)OCC#CI [3-iodo-2-propynyl butylcarbamate (IPBC)]	103%
CC(C)(C)c1ccc(C(=O)NCC(=O)OCC(=O)NCc2ccco2)cc1 + CCCCNC(=O)OCC#CI [3-iodo-2-propynyl butylcarbamate (IPBC)]	101%
CCS(=O)(=O)c1ccccc1C(=O)OCC(=O)N1CCNC1=O + CCCCNC(=O)OCC#CI [3-iodo-2-propynyl butylcarbamate (IPBC)]	106%
Fc1ccc(-c2ccc(NCCc3cccs3)nn2)cc1 + CCCCNC(=O)OCC#CI [3-iodo-2-propynyl butylcarbamate (IPBC)]	89.8%
Clc1snnc1CSc1nccn1-c1ccccc1 + CCCCNC(=O)OCC#CI [3-iodo-2-propynyl butylcarbamate (IPBC)]	80.6%
CN(C)CCCN(C(=O)c1ccc(Br)s1)c1nc2ccc(F)cc2s1 + CCCCNC(=O)OCC#CI [3-iodo-2-propynyl butylcarbamate (IPBC)]	4.69%
CCN(CC)c1nc2sc(C(=O)OCc3nccs3)cc2s1 + CCCCNC(=O)OCC#CI [3-iodo-2-propynyl butylcarbamate (IPBC)]	86.8%
O=C(O)CCc1ccc(-c2ccccc2)n1NC(=O)c1ccc(O)cc1 + CCCCNC(=O)OCC#CI [3-iodo-2-propynyl butylcarbamate (IPBC)]	103%
CCC1CCCCN1C(=O)C(C)OC(=O)c1ccc(-n2cccn2)cc1 (centres undefined) + CCCCNC(=O)OCC#CI [3-iodo-2-propynyl butylcarbamate (IPBC)]	88.6%
O=C(CCn1c(=O)oc2ccccc21)OC1CCCCC1=O (centres undefined) + CCCCNC(=O)OCC#CI [3-iodo-2-propynyl butylcarbamate (IPBC)]	99.8%
CCN(CC)[S](=O)(=O)C1=CC(=CC=C1C)C/2=N/N(CC(=O)NC3=CC=C(C=C3)C(C)=O)C(=O)/C=C2 + CCCCNC(=O)OCC#CI [3-iodo-2-propynyl butylcarbamate (IPBC)]	75.8%
CCCNC(=O)CN1\C(=C/C(=O)[N]2N=C(N=C12)C3=CC=CC=C3C)C + CCCCNC(=O)OCC#CI [3-iodo-2-propynyl butylcarbamate (IPBC)]	110%
Cc1cc(F)ccc1-n1nnc(C(=O)OCc2ccc(F)cc2)c1C + CCCCNC(=O)OCC#CI [3-iodo-2-propynyl butylcarbamate (IPBC)]	89.1%
CNS(=O)(=O)c1cc(NC(=O)c2cc3ccccc3cc2O)ccc1C + CCCCNC(=O)OCC#CI [3-iodo-2-propynyl butylcarbamate (IPBC)]	90.1%
CC(C)CN1\C(=N/[S](=O)(=O)C2=CC(=CC=C12)C(=O)N(C)CC3=CC=CC=C3)C + CCCCNC(=O)OCC#CI [3-iodo-2-propynyl butylcarbamate (IPBC)]	92.9%
CCCC(=O)Nc1ccc(C(=O)CSc2nnc(-c3cccnc3)n2C)cc1 + CCCCNC(=O)OCC#CI [3-iodo-2-propynyl butylcarbamate (IPBC)]	98.3%
CCOC(=O)c1sc(-n2nc(C)c(Cc3ccccc3)c2O)nc1C + CCCCNC(=O)OCC#CI [3-iodo-2-propynyl butylcarbamate (IPBC)]	104%

SMILES	growth
CC(C)NC(=O)CCCc1nnc2n(C)c(=O)c3sccc3n12 + CCCCNC(=O)OCC#CI [3-iodo-2-propynyl butylcarbamate (IPBC)]	114%
CC1C2CC(CC(C)(C)C2)N1C/3=C(\Cl)C(=O)N(CC(O)=O)/N=C3 (centres undefined) + CCCCNC(=O)OCC#CI [3-iodo-2-propynyl butylcarbamate (IPBC)]	87.6%
CC(C)(C)c1ccc2oc(=O)n(C(=O)COc3ccc(F)cc3)c2c1 + CCCCNC(=O)OCC#CI [3-iodo-2-propynyl butylcarbamate (IPBC)]	97.7%
CN1\C=C(/C(=O)N(C)C1=O)[S](=O)(=O)NC2(C)CC[S](=O)(=O)C2 (centres undefined) + CCCCNC(=O)OCC#CI [3-iodo-2-propynyl butylcarbamate (IPBC)]	113%
O=C(COCC(F)(F)F)NC(c1ccccc1)c1cc2ccccc2o1 (centres undefined) + CCCCNC(=O)OCC#CI [3-iodo-2-propynyl butylcarbamate (IPBC)]	93.6%
CCCCc1c(C)nn(-c2nc(C)c(C(=O)NC(C)C)s2)c1O + CCCCNC(=O)OCC#CI [3-iodo-2-propynyl butylcarbamate (IPBC)]	114%
CCN(CC)c1ccc2nnc(CCC(=O)NCc3ccccn3)n2n1 + CCCCNC(=O)OCC#CI [3-iodo-2-propynyl butylcarbamate (IPBC)]	94.3%
COCCN1\N=C(/C=C\C1=O)C(=O)N(CC2=C(F)C=CC=C2Cl)C3CC3 + CCCCNC(=O)OCC#CI [3-iodo-2-propynyl butylcarbamate (IPBC)]	89.2%
CCOc1ccc(C(=O)NC(c2ccc(C)cc2)c2cccnc2)cc1 (centres undefined) + CCCCNC(=O)OCC#CI [3-iodo-2-propynyl butylcarbamate (IPBC)]	97.3%
COc1ccc(C(=O)CSc2ccc3ccccc3n2)c(OC)c1 + CCCCNC(=O)OCC#CI [3-iodo-2-propynyl butylcarbamate (IPBC)]	85.6%
CCCCN1\N=C(/C=C\C1=O)C(=O)NC2=CC=C(C=C2)[S](=O)(=O)N(C)CC3=CC=CC=C3 + CCCCNC(=O)OCC#CI [3-iodo-2-propynyl butylcarbamate (IPBC)]	83.5%
CCN1CCN(S(=O)(=O)c2ccc3c(c2)NC(=O)C(C)CS3)CC1 (centres undefined) + CCCCNC(=O)OCC#CI [3-iodo-2-propynyl butylcarbamate (IPBC)]	101%
Cc1nn(C)c(C)c1CNC(=O)C1C2CCC(O2)C1C(=O)O (centres undefined) + CCCCNC(=O)OCC#CI [3-iodo-2-propynyl butylcarbamate (IPBC)]	103%
Cc1cc(C)cc(OCC(=O)OC(C)C(=O)Nc2ccccc2C#N)c1 (centres undefined) + CCCCNC(=O)OCC#CI [3-iodo-2-propynyl butylcarbamate (IPBC)]	86.9%
Cc1cc(C)c2[nH]c(C)c(CC(=O)N3CCOCC3)c2c1 + CCCCNC(=O)OCC#CI [3-iodo-2-propynyl butylcarbamate (IPBC)]	89%
CCN(CC(=O)NCc1cccs1)C(=O)c1ccc(-n2cccn2)cc1 + CCCCNC(=O)OCC#CI [3-iodo-2-propynyl butylcarbamate (IPBC)]	90.3%
CNC(=O)C(c1ccc(Cl)cc1)N(C)Cc1cc2c(cc1Br)OCCO2 (centres undefined) + CCCCNC(=O)OCC#CI [3-iodo-2-propynyl butylcarbamate (IPBC)]	102%
NC(=O)c1cc(Cl)ccc1OCc1nc(-c2ccsc2)no1 + CCCCNC(=O)OCC#CI [3-iodo-2-propynyl butylcarbamate (IPBC)]	109%
CCn1c(CN2CCCCCC2=O)nnc1SCC(=O)NCC(C)C + CCCCNC(=O)OCC#CI [3-iodo-2-propynyl butylcarbamate (IPBC)]	111%

Part of the list above in a different format:
SMILES,growth
Cc1cc(C)c2[nH]c(C)c(CC(=O)N3CCOCC3)c2c1 + CCCCNC(=O)OCC#CI [3-iodo-2-propynyl butylcarbamate (IPBC)],89%
CNC(=O)C(c1ccc(Cl)cc1)N(C)Cc1cc2c(cc1Br)OCCO2 (centres undefined) + CCCCNC(=O)OCC#CI [3-iodo-2-propynyl butylcarbamate (IPBC)],102%
CCn1c(CN2CCCCCC2=O)nnc1SCC(=O)NCC(C)C + CCCCNC(=O)OCC#CI [3-iodo-2-propynyl butylcarbamate (IPBC)],111%

— the supplement of paper PMC8007513
